# Data from PubChem BioAssay AID493014 (National Center for Advancing Translational Sciences (NCATS), 2011).
# Among all 340,000 compounds or so, about 170 (0.05%) were called active. Inconclusive means that the source gave no clear call. Such entries were picked first, then a sample of the others. The call rests on the fitted dose curve; in most records, active means well fitted inhibition curve with a large enough effect in the signal ratio, with a control signal flat (not every such curve was filed as active); inconclusive means small, poorly fitted or top-dose-only effect, or effect the other way, or a change in a side signal; inactive means flat fitted curve, though single readings scatter; the % refers to the signal ratio. Where the call is inconclusive, the potency comes from a doubtful curve fit.
# Experiment: qHTS Assay to Find Inhibitors of Chronic Active B-Cell Receptor Signaling;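 on activity change, negative = inhibition: plate controls were basal doxycycline-induced cells for no effect and cells given 10 µM MG132 for full effect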
# Settings: ABC-DLBCL IkBa-CBG/CBR reporter, luminescence ratio (green luciferase fused to IkBa over red control in TMD8 lymphoma cells), 4 h; activity change, negative = inhibition: at 46.1 µM (top of the series)
# How it was run: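 Concentration-response series (up to 46 uM) were applied to TMD8 dual-reporter cells for 4 h at 37C with doxycycline. Green/red ratio, after filter-overlap correction, defined %Activity; red signal alone was normalised to basal cells and zero luminescence.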
# Potency means the concentration at half of the fitted maximal effect.
Compound,"activity change, negative = inhibition",Potency
COc1ccsc1C(=O)NCCN1CCOCC1,inconclusive: 0.202%,
CC(C)c1ccccc1NC(=O)COC(=O)c1cc([N+](=O)[O-])ccc1N1CCOCC1,inconclusive: 9.95%,
CCOC(=O)c1c(CN2CCOCC2)n(-c2ccccc2)c2cc(Br)c(OC)cc12,,"inconclusive: 1.03 µM [rising, full curve, poor fit]"
COc1ccc(NS(=O)(=O)c2c(C)cc(C)cc2C)cc1,inconclusive: -8.93%,
Cc1ccc(NC(=O)c2ccc3nsnc3c2)c(Cl)c1,inactive,
CSc1nc(SCCO)c2sc3nc(-c4ccco4)c4c(c3c2n1)CC(C)(C)OC4,inconclusive: -8.26%,
CCOc1ccccc1/C=N/Nc1nc2c(N)ncnc2n1[C@H]1O[C@@H](CO)[C@H](O)[C@@H]1O,,"inconclusive: 12.6 µM [falling, partial curve]"
Cc1ccc(C)c(OCC(=O)Nc2ccc(C(=O)O)cc2NC(=O)COc2cc(C)ccc2C)c1,,"inconclusive: 31.6 µM [falling, partial curve, poor fit]"
COc1ccc(S(=O)(=O)N(C)CC(=O)N2CCCCC2)cc1Cl,inconclusive: 1.28%,
CC(C)(C)NC(=S)NC(=O)C12CCC3CC(CC(C3)C1)C2,inconclusive: 6.41%,
O=C1OC(OC(=O)c2ccccc2Br)C(N2CCOCC2)=C1Cl (stereo unspecified),inconclusive: -11.2%,
COCP(=O)(c1ccccc1)c1ccccc1,,"inconclusive: 2.31 µM [falling, single point]"
COc1ccccc1-c1nn(Cc2ccccc2)cc1/C=C/C(=O)O,inconclusive: 21.6%,
Cn1c(N)c(Sc2ccccc2[N+](=O)[O-])c(=O)n(C)c1=O,inconclusive: -37%,
CS(=O)(=O)N(CC(=O)NCCC1=CCCCC1)C1CCCCC1,inconclusive: 6.55%,
COc1cc(-c2nc(-c3ccc(NC(=O)c4ccc5c(c4)OCO5)cc3)no2)cc(OC)c1OC,,"inconclusive: 5.8 µM [falling, partial curve]"
C=C1c2ccccc2NC(=O)N1c1ccc(C)cc1,,"inconclusive: 2.31 µM [falling, partial curve]"
Cc1cccc(NC(=O)N2CCCC(CNC(=O)c3ccccc3Cl)C2)c1C (stereo unspecified),inactive,
C=CCc1cccc(Cl)c1OCCCNC1CCCC1,inactive,
CC(C)(CO)NCC(O)COc1ccc2c(c1)CCC2 (stereo unspecified),inactive,
COc1cc(OC)cc(C(=O)NNC(=O)CN2C(=O)NC3(CCCC3)C2=O)c1,inconclusive: 1.13%,
COc1ccc(N2CCN(CCC(O)c3ccc4ccccc4c3)CC2)cc1 (stereo unspecified),inactive,
Cc1ccc(NC2=NC(c3ccc(C)cc3)n3c(nc(C)cc3=O)N2)cc1 (stereo unspecified),inconclusive: 1.1%,
Cc1ccc(-c2cc3c(N=O)c4ccccc4c-3n[nH]2)cc1,inconclusive: 0.203%,
O=C(NCc1ccccn1)C1CCN(S(=O)(=O)N2CCC3(CC2)OCCO3)CC1,inactive,
CCCC1=Nc2cc(C(=O)NCCN3CCOCC3)ccc2Sc2ccccc21,,"inconclusive: 12.6 µM [falling, partial curve, poor fit]"

# Retrieved one by one from above (2):
Compound,"activity change, negative = inhibition",Potency
COc1ccc(NS(=O)(=O)c2c(C)cc(C)cc2C)cc1,inconclusive: -8.93%,
CCOc1ccccc1/C=N/Nc1nc2c(N)ncnc2n1[C@H]1O[C@@H](CO)[C@H](O)[C@@H]1O,,"inconclusive: 12.6 µM [falling, partial curve]"

# (further entries)

Compound,"activity change, negative = inhibition",Potency
c1ccc(-c2cc3c(NCC4COc5ccccc5O4)ncnc3s2)cc1 (stereo unspecified),inconclusive: 11.1%,
O=C(O)c1cccc(S(=O)(=O)N2CCC(n3nnc4cc(C(F)(F)F)ccc43)CC2)c1,inactive,
O=C(O)CCc1ccc(-c2ccccc2)n1-c1ccc(C(=O)O)cc1,,"inconclusive: 28.2 µM [falling, single point]"
COc1cc(OC)c2c(-c3ccccc3)cc(=O)oc2c1C(CC(=O)N1CCOCC1)c1ccc(N(C)C)cc1 (stereo unspecified),inconclusive: -4.83%,
COc1ccc(S(=O)(=O)N/N=C(/C)c2cccc(NC(=O)c3ccccc3Cl)c2)cc1,,"inconclusive: 20 µM [falling, single point]"
N#Cc1ccccc1Cn1cc(/C=N/Nc2ccc([N+](=O)[O-])cn2)c2ccccc21,inconclusive: 17.8%,
COc1cc2ccccc2cc1C(=O)N(CCN(C)C)c1nc2c(OC)ccc(OC)c2s1,,"inconclusive: 17.8 µM [falling, partial curve, poor fit]"
CCOC(=O)C1=C(C)NC(=O)NC1c1ccc(OCC(=O)OC)c(OC)c1 (stereo unspecified),inconclusive: -3.23%,
COc1ccccc1CNC(=O)[C@H](CCSC)NC(=O)[C@@H]1Cc2ccccc2CN1,inactive,
OCCn1c(SCCOc2ccccc2)nc2ccccc21,,"inconclusive: 13 µM [falling, partial curve, poor fit]"
Cc1ccccc1C(=O)NCCNC(=O)c1ccco1,inactive,
COc1ccc(-c2ccc(CCC(=O)O)n2NC(=O)c2ccc(C(C)(C)C)cc2)cc1,,"inconclusive: 22.4 µM [falling, single point]"
CCCCc1ccc(N2C(=O)[C@@H]3C(CC(N)=O)NC4(C(=O)Nc5ccc(F)cc54)[C@@H]3C2=O)cc1 (stereo partly specified),,"inconclusive: 29.1 µM [falling, single point]"
O=C1CN(C(=O)COC(=O)Cc2ccsc2)c2ccccc2N1,inconclusive: 17%,
CC(C)CSC1=NSC2=NC(=O)/C(=C\c3coc4ccccc4c3=O)C(=N)N12,,"inconclusive: 15.8 µM [falling, partial curve]"
CCn1c(SCC(=O)N(C(C)C)C(C)C)nnc1-c1cc2ccccc2cc1O,inactive,
Cc1csc(SCC(=O)Nc2sccc2C(N)=O)n1,,"inconclusive: 15.8 µM [falling, partial curve]"
CCOC(=O)c1cnc(SCc2nc(N)nc(Nc3ccccc3)n2)nc1N,inconclusive: 0.029%,
Cn1c(=O)[nH]c(=O)c2c1nc(Br)n2C/C=N/NC(=O)c1ccccc1,,"inconclusive: 5.62 µM [rising, single point]"
Fc1cc(Br)ccc1Nc1nc2ccccc2n2nnnc12,,"inconclusive: 23.1 µM [falling, partial curve]"
COc1ccc(C(=O)n2nc(-c3ccc(C)cc3)nc2N)cc1OC,inconclusive: 2.14%,
COc1ccc(-c2c[n+](CC(=O)c3cccs3)c3n2CCC3)cc1,inactive,
Cc1ccc(C)c(N2CCN(C(=O)c3ccc(Cl)c(NC4=NC5CS(=O)(=O)CC5S4)c3)CC2)c1 (stereo unspecified),,"inconclusive: 31.6 µM [falling, partial curve, poor fit]"
COC(=O)c1ccc(Oc2c(F)c(F)nc(N3CCOCC3)c2F)cc1,inactive,
COC(=O)Cc1cc(=O)n2[nH]cnc2n1,inactive,
Nc1cc(Nc2ccccc2)c2nonc2c1[N+](=O)[O-],inactive,

Compound,"activity change, negative = inhibition",Potency
N#C/C(=C\c1c(Cl)cccc1Cl)c1nc2ccccc2[nH]1,inconclusive: -9.09%,
COc1cc(NC(=O)c2cc([N+](=O)[O-])ccc2N2CCOCC2)ccc1NC(=O)c1ccco1,inconclusive: -7.25%,
CCN(CC)c1ccc(N)cc1,inactive,
CC1CCc2c(c3ccccc3n2C(=O)CCl)C1 (stereo unspecified),inconclusive: 8.38%,
O=C(NCCCN1CCCC1=O)NC12CC3CC(CC(C3)C1)C2,inconclusive: -3.67%,
Cc1nc(S/C(=C\c2ccc(-c3ccc(C(=O)O)c(Cl)c3)o2)C(=O)O)n[nH]1,,"inconclusive: 25.1 µM [falling, single point]"
CCOC(=O)c1ccccc1NC(=O)COC(=O)CC(C)(C)CC1=NS(=O)(=O)c2ccccc2N1,inconclusive: 1.04%,
Cc1ccc(CNC(=O)COC(=O)CN2C(=O)C3CC=CCC3C2=O)cc1 (stereo unspecified),inconclusive: 4.67%,
Cc1ccnc(Nc2nc(-c3ccc(O)c(O)c3)cs2)c1,inconclusive: -15.4%,
O=C(CN1CCN(C(c2ccccc2)c2ccccc2)CC1)NC(=O)NCc1ccco1,,"inconclusive: 25.1 µM [rising, single point]"
O=C(CCCCCN1C(=O)[C@@H]2Cc3ccccc3CN2C1=O)Nc1ccccc1F,,"inconclusive: 7.08 µM [falling, partial curve]"
O=C(CC1NCCc2ccccc21)Nc1ccc(Oc2ccccc2)cc1 (stereo unspecified),inconclusive: -0.378%,
COc1ccccc1N1CCN(C(=O)C(C)N(c2ccccc2)S(C)(=O)=O)CC1 (stereo unspecified),inconclusive: 2.04%,
COc1ccccc1N1CCN(Cc2nc(N)nc(Nc3ccc(C)c(Cl)c3)n2)CC1,inconclusive: -4.3%,
O=C(Nc1ccc(N2CCCCC2)cc1)c1ccc(F)cc1,,"inconclusive: 29.1 µM [falling, single point]"
COc1cc(/C=C/C(=O)OCC(=O)Nc2cc(S(=O)(=O)N3CCCC3)ccc2Cl)cc(OC)c1OC,inactive,
O=C(CNC(=O)c1cccc(F)c1)N/N=C/c1ccc([N+](=O)[O-])s1,inactive,
CCOc1ccc(N(C(=O)/C=C/C(=O)Nc2cc(C)on2)C(C(=O)NC2CCCC2)c2ccccc2C)cc1 (stereo unspecified),inactive,
COCCNC(=O)c1ccc2c(Cl)c3c(nc2c1)CCC3,inconclusive: 0.488%,
CN(C)S(=O)(=O)c1ccc(C(=O)NCc2nnc(SCC(=O)NCc3ccco3)o2)cc1,inactive,
COc1ccc(-c2oc(=O)c3cc(OC)c(OC)cc3c2C#CC2(O)CCCCC2)cc1,inconclusive: -1.39%,
COc1ccc(OC(=O)CN2C(=O)C3C4CCC(C4)C3C2=O)cc1 (stereo unspecified),inconclusive: 11.4%,
COc1ccc(-c2cc(C(=O)NCCc3ccc(OC)c(OC)c3)c3c(-c4ccc(F)cc4)[nH]nc3n2)cc1,,"inconclusive: 0.0891 µM [falling, full curve, poor fit]"
C#CCOCCOCCOCCNc1nc(N2CCN(C(=O)CCCCCCCCCCNC(=O)[C@H](CCCCN)n3cc(CCO)nn3)CC2)nc(N2CCN(C(=O)CCCCCCCCCCNC(=O)[C@H](CCCN=C(N)N)n3cc(C[C@@H](C)CC)nn3)CC2)n1,inconclusive: 11.2%,

# Of the compounds above, 2 contain a cyano group:
Compound,"activity change, negative = inhibition",Potency
N#Cc1ccccc1Cn1cc(/C=N/Nc2ccc([N+](=O)[O-])cn2)c2ccccc21,inconclusive: 17.8%,
N#C/C(=C\c1c(Cl)cccc1Cl)c1nc2ccccc2[nH]1,inconclusive: -9.09%,
